Measurements: patent US12528800B2, “Pesticidal compounds” (BASF SE, priority 2018, dated 2026)
Some entries share one result that the patent states for a list of compounds.

Tests used:
Type in all cases: in vivo
[1] = tested on: boll weevil (Anthonomus grandis); test: Action on boll weevil (Anthonomus grandis), microtiter plate diet test; details: 800 ppm; egg and larval mortality after 5 days
Description: For evaluating control of boll weevil (Anthonomus grandis) the test unit consisted of 96-well-microtiter plates containing an insect diet and 5-10 A. grandis eggs.
The compounds were formulated using a solution containing 75% (v/v) water and 25% (v/v) DMSO. Different concentrations of formulated compounds were sprayed onto the insect diet at 5 μl, using a custom built micro atomizer, at two replications.
After application, microtiter plates were incubated at about 25+1° C. and about 75+5% relative humidity for 5 days. Egg and larval mortality was then visually assessed.

[2] = tested on: tobacco budworm (Heliothis virescens); test: Action on tobacco budworm (Heliothis virescens), microtiter plate diet test; details: 800 ppm; egg and larval mortality after 5 days
Description: For evaluating control of tobacco budworm (Heliothis virescens) the test unit consisted of 96-well-microtiter plates containing an insect diet and 15-25 H. virescens eggs.
The compounds were formulated using a solution containing 75% v/v water and 25% v/v DMSO. Different concentrations of formulated compounds were sprayed onto the insect diet at 10 μl, using a custom-built micro atomizer, at two replications.
After application, microtiter plates were incubated at about 28+1° C. and about 80+5% relative humidity for 5 days. Egg and larval mortality were then visually assessed.

[3] = tested on: yellow fever mosquito (Aedes aegypti); details: 800 ppm; larval mortality visually assessed after 2 days
Description: For evaluating control of yellow fever mosquito (Aedes aegypti) the test unit consisted of 96-well-microtiter plates containing 200 μl of tap water per well and 5-15 freshly hatched A. aegypti larvae.
The active compounds or mixtures were formulated using a solution containing 75% (v/v) water and 25% (v/v) DMSO. Different concentrations of formulated compounds or mixtures were sprayed onto the insect diet at 2.5 μl using a custom built micro atomizer, at two replications.
For experimental mixtures in these tests identical volumes of both mixing partners at the desired concentrations respectively, were mixed together.
After application, microtiter plates were incubated at 28+1° C., 80+5% RH for 2 days. Larval mortality was then visually assessed.

[4] = tested on: Southern armyworm (Spodoptera eridania), 2nd instar larvae; test: Action on southern armyworm (Spodoptera eridania), 2nd instar larvae, sprayed lima bean plants; details: 300 ppm; 2nd instar larvae on lima bean plants, 4 days after treatment
Description: The active compounds were formulated by a Tecan liquid handler in 100% cyclohexanone as a 10,000 ppm solution supplied in tubes. The 10,000 ppm solution was serially diluted in 100% cyclohexanone to make interim solutions. These served as stock solutions for which final dilutions were made by the Tecan in 50% acetone:50% water (v/v) into 10 or 20 ml glass vials. A nonionic surfactant (Kinetic®) was included in the solution at a volume of 0.01% (v/v). The vials were then inserted into an automated electrostatic sprayer equipped with an atomizing nozzle for application to plants/insects.
Lima bean plants (variety Sieve) were grown 2 plants to a pot and selected for treatment at the 1st true leaf stage. Test solutions were sprayed onto the foliage by an automated electrostatic plant sprayer equipped with an atomizing spray nozzle. The plants were dried in the sprayer fume hood and then removed from the sprayer. Each pot was placed into perforated plastic bags with a zip closure. About 10 to 11 armyworm larvae were placed into the bag and the bags zipped closed. Test plants were maintained in a growth room at about 25° C. and about 20-40% relative humidity for 4 days, avoiding direct exposure to fluorescent light (24 hour photoperiod) to prevent trapping of heat inside the bags. Mortality and reduced feeding were assessed 4 days after treatment, compared to untreated control plants.

[5] = tested on: Diamond back moth (Plutella xylostella); test: Action on diamond back moth (Plutella xylostella), cabbage leaf dip; details: 500 ppm; 3rd instar larvae on dipped cabbage leaves, 72 hours after treatment
Description: The active compound is dissolved at the desired concentration in a mixture of 1:1 (v/v) distilled water: acetone. Surfactant (Kinetic® HV) is added at a rate of 0.01% (v/v). The test solution is prepared at the day of use.
Leaves of cabbage were dipped in test solution and air-dried. Treated leaves were placed in petri dishes lined with moist filter paper and inoculated with ten 3rd instar larvae. Mortality was recorded 72 hours after treatment. Feeding damages were also recorded using a scale of 0-100%.

[6] = tested on: Orchid thrips (Dichromothrips corbetti); test: Action on orchid thrips (Dichromothrips corbetti), floral-immersion technique; details: 500 ppm; adult thrips, 72 hours after treatment
Description: Dichromothrips corbetti adults used for bioassay were obtained from a colony maintained continuously under laboratory conditions. For testing purposes, the test compound is diluted in a 1:1 mixture of acetone:water (vol:vol), plus Kinetic® HV at a rate of 0.01% v/v.
Thrips potency of each compound was evaluated by using a floral-immersion technique. All petals of individual, intact orchid flowers were dipped into treatment solution and allowed to dry in Petri dishes. Treated petals were placed into individual re-sealable plastic along with about 20 adult thrips. All test arenas were held under continuous light and a temperature of about 28° C. for duration of the assay. After 3 days, the numbers of live thrips were counted on each petal. The percent mortality was recorded 72 hours after treatment.

Structure (SMILES)	mortality in comparison with untreated controls [1]	mortality in comparison with untreated controls [2]	mortality in comparison with untreated controls [3]	mortality in comparison with untreated controls [4]	mortality in comparison with untreated controls [5]	mortality in comparison with untreated controls [6]
CC(C)c1ccccc1N1C(=O)CSC1=NN=Cc1ccc(-c2cc(NCc3ccc(OC(F)(F)F)cc3)n(C)n2)cc1 [Compound C-4]	at least 75%	at least 75%	at least 50%	at least 75%	at least 75%	
CC(C)c1ccccc1N1C(=O)CSC1=NN=Cc1ccc(-c2cc(OCc3ccc(OC(F)(F)F)cc3)n(C)n2)cc1 [Compound C-11]	at least 75%	at least 75%	at least 50%		at least 75%	at least 75%
Cc1c(-c2ccc(C=NNC(=S)Nc3ccccc3C(C)C)cc2)nn(C)c1NC(=O)c1ccc(OC(F)(F)F)cc1 [Compound C-13]				at least 75%	at least 75%	at least 75%
Cc1c(-c2ccc(C=NN=C3SCC(=O)N3c3ccccc3C(C)C)cc2)nn(C)c1NC(=O)c1ccc(OC(F)(F)F)cc1 [Compound C-14]	at least 75%	at least 75%	at least 50%	at least 75%	at least 75%	at least 75%
CO[C@@H]1[C@@H](OC)[C@H](C)O[C@@H](O/N=C/c2ccc(-c3cc(N(C)C(=O)c4ccc(OC(F)(F)F)cc4)n(C)n3)cc2)[C@@H]1OC [Compound C-22]	at least 75%	at least 75%			at least 75%	
CC(C)c1ccccc1NC(=S)N/N=C/c1ccc(-c2cc(N(C)C(=O)c3ccc(OC(F)(F)F)cc3)n(C)n2)c(F)c1 [Compound C-26]	at least 75%		at least 50%		at least 75%	
CC(C)c1ccccc1N1C(=O)CS/C1=N\N=C\c1ccc(-c2cc(N(C)C(=O)c3ccc(OC(F)(F)F)cc3)n(C)n2)c(F)c1 [Compound C-27]	at least 75%		at least 50%	at least 75%	at least 75%	at least 75%
CCCOC1C(OC)C(C)OC(OC(=O)Nc2ccc(-c3cc(NCc4ccc(OC(F)(F)F)cc4)n(CC)n3)cc2)C1OC (centres unmarked) [Compound C-41]	at least 75%	at least 75%	at least 50%	at least 75%	at least 75%	
CCOC1C(C)OC(OC(=O)Nc2ccc(-c3cc(NCc4ccc(OC(F)(F)F)cc4)n(CC)n3)cc2)C(OCC)C1OCC (centres unmarked) [Compound C-42]	at least 75%	at least 75%		at least 75%	at least 75%	
CCn1nc(-c2ccc(/C=N/NC(=S)Nc3ccccc3C(C)C)cc2F)cc1NC(=O)c1ccc(OC(F)(F)F)c(F)c1 [Compound C-43]				at least 75%		
CCn1nc(-c2ccc(C=NN3C(=O)CSC3=Nc3ccccc3C(C)C)cc2F)cc1NC(=O)c1ccc(OC(F)(F)F)c(F)c1 [Compound C-45]				at least 75%		
CC(C)c1ccccc1N1C(=O)CSC1=NN=Cc1ccc(-c2cc(C(=O)Nc3ccc(SC(F)(F)F)cc3)n(C)n2)cc1 [Compound C-48]			at least 50%			
CC(C)c1ccccc1N1C(=O)CSC1=NN=Cc1ccc(-c2cc(C(=O)Nc3ccc(C(F)(F)F)cc3)n(C)n2)cc1 [Compound C-49]		at least 75%	at least 50%			
CC(C)c1ccccc1N1C(=O)CSC1=NN=Cc1ccc(-c2cc(C(=O)Nc3ccc(C(F)(F)F)nn3)n(C)n2)cc1 [Compound C-50]	at least 75%	at least 75%	at least 50%		at least 75%	at least 75%
Cc1cc(C(F)(F)F)ccc1NC(=O)c1cc(-c2ccc(C=NN=C3SCC(=O)N3c3ccccc3C(C)C)cc2)nn1C [Compound C-51]		at least 75%	at least 50%	at least 75%	at least 75%	
CC(C)c1ccccc1N=C1SCC(=O)N1N=Cc1ccc(-c2cc(COc3ccc(OC(F)(F)F)cc3)n(C)n2)cc1 [Compound C-54]	at least 75%	at least 75%	at least 50%	at least 75%	at least 75%	
COC1C(C)OC(OC(=O)Nc2ccc(-c3cc(COc4ccc(OC(F)(F)F)cc4)n(C)n3)cc2)C(OC)C1OC (centres unmarked) [Compound C-55]					at least 75%	
CCCOC1C(OC)C(C)OC(OC(=O)Nc2ccc(-c3cc(COc4ccc(OC(F)(F)F)cc4)n(C)n3)cc2)C1OC (centres unmarked) [Compound C-56]				at least 75%	at least 75%	
CC(C)c1ccccc1N=C1SCC(=O)N1N=Cc1ccc(-c2cc(NC(=O)c3ccc(OC(F)(F)F)cc3)[nH]n2)cc1 [Compound C-59]	at least 75%	at least 75%	at least 50%		at least 75%	at least 75%
CC(C)c1ccccc1NC(=S)N/N=C/c1ccc(-c2nc(NC(=O)c3ccc(OC(F)(F)F)cc3)n(C)n2)cc1 [Compound C-62]	at least 75%	at least 75%		at least 75%	at least 75%	at least 75%
Cc1ccc(C(C)C)c(N2C(=O)CS/C2=N\N=C\c2ccc(-c3nc(NC(=O)c4ccc(OC(F)(F)F)cc4)n(C)n3)cc2)c1 [Compound C-67]	at least 75%	at least 75%			at least 75%	
